Our source for the log2 fold change values is the supplement of paper PMC12819154, “High-throughput peptide-centric local stability assay extends protein–ligand identification to membrane proteins, tissues and bacteria” (Nature Structural & Molecular Biology, 2025).

By UniProt entry, the sequences of proteins in these tests, tags left out. Where a name states a change or a piece, a line headed by the entry shows the natural chain unless it says otherwise.
UniProt Q92609: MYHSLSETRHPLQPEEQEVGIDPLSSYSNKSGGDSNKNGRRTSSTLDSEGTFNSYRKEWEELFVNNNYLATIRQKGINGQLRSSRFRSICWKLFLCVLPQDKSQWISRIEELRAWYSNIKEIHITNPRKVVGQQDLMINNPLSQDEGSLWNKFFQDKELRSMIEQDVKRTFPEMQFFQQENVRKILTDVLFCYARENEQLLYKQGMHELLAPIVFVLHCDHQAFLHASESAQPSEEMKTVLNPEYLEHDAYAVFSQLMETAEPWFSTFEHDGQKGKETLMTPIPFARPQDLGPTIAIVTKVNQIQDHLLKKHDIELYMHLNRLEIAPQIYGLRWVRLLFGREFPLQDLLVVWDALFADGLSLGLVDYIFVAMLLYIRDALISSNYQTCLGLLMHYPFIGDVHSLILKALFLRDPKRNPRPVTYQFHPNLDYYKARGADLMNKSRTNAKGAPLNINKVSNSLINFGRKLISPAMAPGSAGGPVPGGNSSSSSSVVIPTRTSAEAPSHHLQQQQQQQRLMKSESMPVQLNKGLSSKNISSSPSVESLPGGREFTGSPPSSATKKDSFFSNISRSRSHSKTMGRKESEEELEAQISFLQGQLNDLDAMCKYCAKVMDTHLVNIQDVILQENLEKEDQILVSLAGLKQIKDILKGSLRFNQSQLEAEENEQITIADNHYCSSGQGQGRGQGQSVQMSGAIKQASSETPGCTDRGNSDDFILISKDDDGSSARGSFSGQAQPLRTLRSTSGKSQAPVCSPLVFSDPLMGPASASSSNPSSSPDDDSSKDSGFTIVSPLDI
UniProt Q8TE04: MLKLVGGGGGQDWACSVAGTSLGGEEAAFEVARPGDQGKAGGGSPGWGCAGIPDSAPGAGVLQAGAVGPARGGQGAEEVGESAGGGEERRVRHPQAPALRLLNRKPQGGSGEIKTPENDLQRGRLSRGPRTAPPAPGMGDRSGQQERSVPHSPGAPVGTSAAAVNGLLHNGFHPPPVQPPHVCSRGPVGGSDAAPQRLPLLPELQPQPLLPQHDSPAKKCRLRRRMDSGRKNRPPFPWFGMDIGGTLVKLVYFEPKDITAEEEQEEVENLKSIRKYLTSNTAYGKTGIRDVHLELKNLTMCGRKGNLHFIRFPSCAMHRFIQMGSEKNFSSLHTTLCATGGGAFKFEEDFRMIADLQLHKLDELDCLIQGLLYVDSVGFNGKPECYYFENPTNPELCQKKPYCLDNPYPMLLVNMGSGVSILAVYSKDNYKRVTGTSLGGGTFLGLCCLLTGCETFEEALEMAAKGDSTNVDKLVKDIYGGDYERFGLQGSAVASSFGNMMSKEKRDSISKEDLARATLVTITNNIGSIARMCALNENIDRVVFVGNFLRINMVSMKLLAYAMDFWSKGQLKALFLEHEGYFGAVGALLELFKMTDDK
UniProt Q8WVL7: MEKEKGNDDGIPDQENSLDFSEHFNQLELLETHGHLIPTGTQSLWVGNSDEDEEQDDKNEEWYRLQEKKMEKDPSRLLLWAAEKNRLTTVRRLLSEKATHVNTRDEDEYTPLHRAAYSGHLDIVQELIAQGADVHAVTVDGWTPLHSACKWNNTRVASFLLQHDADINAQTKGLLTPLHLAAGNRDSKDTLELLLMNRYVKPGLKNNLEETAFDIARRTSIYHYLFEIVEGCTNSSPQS
UniProt Q92784, whole entry: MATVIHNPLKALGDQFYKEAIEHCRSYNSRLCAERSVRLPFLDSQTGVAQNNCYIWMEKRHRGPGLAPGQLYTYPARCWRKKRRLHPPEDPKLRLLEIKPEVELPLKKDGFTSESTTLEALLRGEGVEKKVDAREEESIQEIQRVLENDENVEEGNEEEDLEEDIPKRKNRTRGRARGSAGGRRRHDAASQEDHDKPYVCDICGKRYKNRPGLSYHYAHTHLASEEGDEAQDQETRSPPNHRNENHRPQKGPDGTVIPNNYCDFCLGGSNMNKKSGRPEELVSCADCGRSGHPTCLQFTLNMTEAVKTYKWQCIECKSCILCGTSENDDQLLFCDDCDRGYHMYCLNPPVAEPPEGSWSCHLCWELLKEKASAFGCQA
UniProt Q8WVB3: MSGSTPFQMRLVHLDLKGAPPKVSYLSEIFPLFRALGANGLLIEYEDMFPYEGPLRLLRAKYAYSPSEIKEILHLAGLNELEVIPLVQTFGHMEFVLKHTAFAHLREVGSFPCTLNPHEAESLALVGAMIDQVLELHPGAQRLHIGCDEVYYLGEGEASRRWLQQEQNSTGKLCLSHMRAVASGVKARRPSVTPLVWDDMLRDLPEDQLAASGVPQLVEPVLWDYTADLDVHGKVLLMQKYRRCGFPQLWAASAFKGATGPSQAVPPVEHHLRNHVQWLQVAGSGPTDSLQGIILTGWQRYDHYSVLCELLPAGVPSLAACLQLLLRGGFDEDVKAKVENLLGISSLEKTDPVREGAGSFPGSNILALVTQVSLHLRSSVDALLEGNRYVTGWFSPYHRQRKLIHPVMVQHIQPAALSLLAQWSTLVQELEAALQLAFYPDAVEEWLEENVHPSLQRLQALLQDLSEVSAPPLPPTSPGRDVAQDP
UniProt Q8TCA0: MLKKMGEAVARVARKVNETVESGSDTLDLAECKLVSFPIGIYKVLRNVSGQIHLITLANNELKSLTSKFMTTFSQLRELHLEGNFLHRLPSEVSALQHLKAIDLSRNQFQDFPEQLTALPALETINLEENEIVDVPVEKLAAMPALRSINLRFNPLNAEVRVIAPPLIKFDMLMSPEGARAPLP
UniProt Q92628: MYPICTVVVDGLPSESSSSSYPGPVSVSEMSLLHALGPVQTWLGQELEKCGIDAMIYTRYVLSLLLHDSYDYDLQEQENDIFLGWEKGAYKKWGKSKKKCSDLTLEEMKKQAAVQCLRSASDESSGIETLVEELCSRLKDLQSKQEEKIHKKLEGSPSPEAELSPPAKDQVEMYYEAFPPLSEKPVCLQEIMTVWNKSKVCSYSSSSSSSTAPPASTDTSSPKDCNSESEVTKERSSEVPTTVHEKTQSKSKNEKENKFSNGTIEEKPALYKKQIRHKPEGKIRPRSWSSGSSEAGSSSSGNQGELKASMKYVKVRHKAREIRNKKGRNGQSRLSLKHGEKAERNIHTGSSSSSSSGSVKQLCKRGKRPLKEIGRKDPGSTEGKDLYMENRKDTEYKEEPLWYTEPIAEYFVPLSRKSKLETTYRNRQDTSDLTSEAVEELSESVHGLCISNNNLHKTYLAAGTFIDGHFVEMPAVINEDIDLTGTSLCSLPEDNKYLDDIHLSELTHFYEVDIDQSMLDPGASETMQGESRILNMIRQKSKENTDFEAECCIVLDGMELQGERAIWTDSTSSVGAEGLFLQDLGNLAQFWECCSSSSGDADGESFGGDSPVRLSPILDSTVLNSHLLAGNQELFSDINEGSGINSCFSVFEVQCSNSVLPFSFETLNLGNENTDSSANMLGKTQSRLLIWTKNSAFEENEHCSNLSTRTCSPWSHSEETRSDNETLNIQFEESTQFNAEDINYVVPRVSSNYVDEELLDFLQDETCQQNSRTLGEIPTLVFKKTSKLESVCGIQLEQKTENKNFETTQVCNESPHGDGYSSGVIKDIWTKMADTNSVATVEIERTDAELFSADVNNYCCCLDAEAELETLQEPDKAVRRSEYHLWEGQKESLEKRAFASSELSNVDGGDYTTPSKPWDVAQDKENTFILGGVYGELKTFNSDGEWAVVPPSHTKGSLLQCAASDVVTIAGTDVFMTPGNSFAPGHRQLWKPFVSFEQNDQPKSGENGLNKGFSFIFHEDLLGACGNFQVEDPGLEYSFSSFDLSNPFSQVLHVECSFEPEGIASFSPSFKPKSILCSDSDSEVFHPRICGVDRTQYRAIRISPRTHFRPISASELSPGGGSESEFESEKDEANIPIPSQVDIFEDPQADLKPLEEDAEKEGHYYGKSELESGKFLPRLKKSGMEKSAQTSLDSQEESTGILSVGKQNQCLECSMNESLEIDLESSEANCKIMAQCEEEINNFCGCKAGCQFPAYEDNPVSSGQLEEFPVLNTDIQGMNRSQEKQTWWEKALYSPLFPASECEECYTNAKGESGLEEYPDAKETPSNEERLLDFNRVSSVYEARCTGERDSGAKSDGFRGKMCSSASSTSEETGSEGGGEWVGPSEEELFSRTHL
UniProt Q8WXA9: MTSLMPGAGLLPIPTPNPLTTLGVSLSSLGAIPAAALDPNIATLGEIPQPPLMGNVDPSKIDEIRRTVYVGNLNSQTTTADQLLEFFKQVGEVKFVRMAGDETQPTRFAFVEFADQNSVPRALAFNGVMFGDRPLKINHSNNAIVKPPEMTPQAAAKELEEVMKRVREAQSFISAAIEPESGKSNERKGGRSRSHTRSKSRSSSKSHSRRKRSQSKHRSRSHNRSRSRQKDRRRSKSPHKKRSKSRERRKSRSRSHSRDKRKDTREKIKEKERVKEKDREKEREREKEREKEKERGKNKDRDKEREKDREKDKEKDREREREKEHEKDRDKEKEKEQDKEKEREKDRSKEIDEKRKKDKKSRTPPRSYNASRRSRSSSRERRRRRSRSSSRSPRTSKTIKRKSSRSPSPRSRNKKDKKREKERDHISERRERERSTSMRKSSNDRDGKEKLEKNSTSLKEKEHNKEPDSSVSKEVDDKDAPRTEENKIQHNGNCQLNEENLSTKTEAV
UniProt Q8WX92, whole entry: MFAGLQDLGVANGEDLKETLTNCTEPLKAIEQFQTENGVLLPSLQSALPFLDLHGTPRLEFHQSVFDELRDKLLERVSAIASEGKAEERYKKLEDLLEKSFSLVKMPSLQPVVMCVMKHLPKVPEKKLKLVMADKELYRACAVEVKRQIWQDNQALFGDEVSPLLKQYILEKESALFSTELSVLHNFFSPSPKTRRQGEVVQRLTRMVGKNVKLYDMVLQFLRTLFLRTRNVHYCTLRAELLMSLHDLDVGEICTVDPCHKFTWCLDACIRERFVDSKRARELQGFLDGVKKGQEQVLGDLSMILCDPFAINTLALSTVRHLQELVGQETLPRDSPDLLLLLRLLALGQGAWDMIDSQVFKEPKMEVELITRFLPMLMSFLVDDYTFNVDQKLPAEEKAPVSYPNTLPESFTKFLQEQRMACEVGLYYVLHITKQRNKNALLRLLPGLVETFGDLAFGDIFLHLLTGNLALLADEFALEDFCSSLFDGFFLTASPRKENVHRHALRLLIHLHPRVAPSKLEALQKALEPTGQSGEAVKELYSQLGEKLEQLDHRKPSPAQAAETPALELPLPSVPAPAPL
UniProt Q8WVE0: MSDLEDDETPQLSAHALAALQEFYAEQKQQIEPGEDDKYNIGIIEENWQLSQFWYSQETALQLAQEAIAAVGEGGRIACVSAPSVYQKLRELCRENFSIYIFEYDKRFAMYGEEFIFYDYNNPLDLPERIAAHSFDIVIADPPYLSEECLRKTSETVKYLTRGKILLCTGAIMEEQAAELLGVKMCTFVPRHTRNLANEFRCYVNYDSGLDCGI
UniProt Q8TD55: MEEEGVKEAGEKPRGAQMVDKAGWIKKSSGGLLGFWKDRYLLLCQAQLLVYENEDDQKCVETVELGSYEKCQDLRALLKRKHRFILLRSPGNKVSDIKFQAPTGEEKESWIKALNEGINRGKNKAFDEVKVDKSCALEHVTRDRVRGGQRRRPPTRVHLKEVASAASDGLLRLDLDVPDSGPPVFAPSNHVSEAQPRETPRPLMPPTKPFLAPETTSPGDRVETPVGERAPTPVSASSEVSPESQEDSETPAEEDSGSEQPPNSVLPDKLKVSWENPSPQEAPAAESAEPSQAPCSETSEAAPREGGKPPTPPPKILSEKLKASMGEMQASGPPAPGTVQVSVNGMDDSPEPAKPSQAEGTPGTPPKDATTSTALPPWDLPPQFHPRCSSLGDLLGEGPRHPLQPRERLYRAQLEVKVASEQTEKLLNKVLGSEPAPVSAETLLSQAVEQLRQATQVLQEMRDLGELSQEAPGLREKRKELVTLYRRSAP
UniProt Q8WWN9: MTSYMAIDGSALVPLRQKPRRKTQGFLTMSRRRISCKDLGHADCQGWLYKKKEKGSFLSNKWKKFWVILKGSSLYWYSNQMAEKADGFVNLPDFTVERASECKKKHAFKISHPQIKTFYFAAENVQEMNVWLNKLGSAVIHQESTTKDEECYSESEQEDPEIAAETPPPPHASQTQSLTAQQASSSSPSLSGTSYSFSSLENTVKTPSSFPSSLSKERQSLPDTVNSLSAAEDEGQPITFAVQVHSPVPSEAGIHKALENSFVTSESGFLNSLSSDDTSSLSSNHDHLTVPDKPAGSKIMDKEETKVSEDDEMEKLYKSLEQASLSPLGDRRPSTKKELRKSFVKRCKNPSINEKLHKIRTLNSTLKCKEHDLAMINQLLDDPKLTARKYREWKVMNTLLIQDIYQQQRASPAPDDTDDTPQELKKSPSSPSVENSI
UniProt Q8WXK3: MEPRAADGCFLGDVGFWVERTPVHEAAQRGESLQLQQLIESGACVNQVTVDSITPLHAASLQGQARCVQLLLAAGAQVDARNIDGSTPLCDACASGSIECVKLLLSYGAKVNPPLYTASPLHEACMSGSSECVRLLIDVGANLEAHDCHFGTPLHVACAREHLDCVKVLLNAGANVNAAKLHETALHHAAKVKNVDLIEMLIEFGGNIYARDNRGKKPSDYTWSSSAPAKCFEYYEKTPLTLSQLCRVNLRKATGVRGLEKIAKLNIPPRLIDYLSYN

This is one part of the list. Most entries show no effect beyond the scatter of the controls.

Compound in this assay: CN[C@@H]1C[C@H]2O[C@@](C)([C@@H]1OC)n1c3ccccc3c3c4c(c5c6ccccc6n2c5c31)C(=O)NC4 [staurosporine]
Briefly: log2 fold change of tryptic peptide abundance, ligand vs vehicle (limited proteolysis) (log2 ratio); higher = more trypsin-susceptible (destabilized). The following applies: ligand concentration: 20 uM; sample: K562 cleared lysate; digestion: 4 min, 22 C (HT-PELSA RT4min, Orbitrap Astral).
On to “UniProt Q8TBZ6 (peptide sequence: ACESASHDNQSVR, peptide start residue: 284)”, for which the log2 fold change is -0.344. Then “GBF1 (peptide sequence: LLEAFTER, peptide start residue: 801) (UniProt Q92538)”, with -0.374. The same measure for “MIPOL1 (peptide sequence: DITHSYLEQETTGINK, peptide start residue: 7) (UniProt Q8TD10)”: -0.397; for “ZFAND1 (peptide sequence: LKMHADGDKSLPQTER, peptide start residue: 148) (UniProt Q8TCF1)”: 0.976. The same measure for “SCFD1 (peptide sequence: RLIDLHTNVATAVLEHIK, peptide start residue: 397) (UniProt Q8WVM8)”: 0.542; for “MRPL30 (peptide sequence: VFQASPEDHEK, peptide start residue: 45) (UniProt Q8TCC3)”: 0.512. Take “HSPH1 (peptide sequence: IGRFVVQNVSAQK, peptide start residue: 459) (UniProt Q92598)”: the log2 fold change is 0.676. Consider “KAT6B (peptide sequence: ERKTGFK, peptide start residue: 1264) (UniProt Q8WYB5)”, for which the log2 fold change came to 0.653. In the case of “UniProt Q8TF20 (peptide sequence: SFGWSTNLNEYKK, peptide start residue: 721)”, the log2 fold change was -0.513. Then “TBC1D5 (peptide sequence: PVTYQFHPNLDYYK, peptide start residue: 420) (UniProt Q92609)”, with -0.233; and “TFB1M (peptide sequence: QLSISHFK, peptide start residue: 294) (UniProt Q8WVM0)”, with 0.497; and “MRPS31 (peptide sequence: HFMELVTCGLSK, peptide start residue: 349) (UniProt Q92665)”, with -0.394. With “PANK1 (peptide sequence: GPVGGSDAAPQR, peptide start residue: 186) (UniProt Q8TE04)”, the log2 fold change came to 0.0868. Then “ANKRD49 (peptide sequence: NNLEETAFDIARR, peptide start residue: 206) (UniProt Q8WVL7)”, with 0.608; and “DPF3 (peptide sequence: KSGRPEELVSCADCGR, peptide start residue: 274) (UniProt Q92784)”, with 0.386; and “DOCK2 (peptide sequence: IKEEMSKDQPDYAMYSR, peptide start residue: 198) (UniProt Q92608)”, with 0.526. The same measure for “UniProt Q8WVB3 (peptide sequence: RPSVTPLVWDDMLR, peptide start residue: 189)”: -0.825. The same measure for “EPS8L1 (peptide sequence: WDSCDSLNGLDPSEKEK, peptide start residue: 578) (UniProt Q8TE68)”: 0.492. On to “LRRC20 (peptide sequence: FDMLMSPEGAR, peptide start residue: 170) (UniProt Q8TCA0)”, for which the log2 fold change was determined as 0.412. The same measure for “UniProt Q92628 (peptide sequence: RSEYHLWEGQK, peptide start residue: 880)”: -0.35.

As to “KAT2A (peptide sequence: TLPENLTLEDAKR, peptide start residue: 435) (UniProt Q92830)”, the log2 fold change worked out at 0.28. The same measure for “UniProt Q8WTU0 (peptide sequence: HQCSIDLK, peptide start residue: 330)”: 0.129. With “UniProt Q8WTW4 (peptide sequence: IECIFFSEFHPTLGPK, peptide start residue: 7)”, the log2 fold change is -0.388. The same measure for “UniProt Q8TF76 (peptide sequence: EHQEASVPK, peptide start residue: 312)”: 0.92; for “UniProt Q8WXA9 (peptide sequence: EHNKEPDSSVSK, peptide start residue: 462)”: -0.239. As for “UniProt Q8TD17 (peptide sequence: TVTELGNQLEGK, peptide start residue: 84)”, the log2 fold change was 0.734.

Turning to “UniProt Q8WX92 (peptide sequence: LLIHLHPR, peptide start residue: 507)”, the log2 fold change turned out to be 0.423. Then “PHIP (peptide sequence: GSISSTSEVHSPPNVGLR, peptide start residue: 673) (UniProt Q8WWQ0)”, with 0.474.

“PSMF1 (peptide sequence: IVSGIITPIHEQWEK, peptide start residue: 134) (UniProt Q92530)”: the log2 fold change stood at 0.201. Then “UniProt Q8WVE0 (peptide sequence: IACVSAPSVYQK, peptide start residue: 77)”, with 0.0675. The same measure for “PLEKHO2 (peptide sequence: SCALEHVTR, peptide start residue: 134) (UniProt Q8TD55)”: -0.461; for “STARD8 (peptide sequence: AKNWAATSAGGSGANTR, peptide start residue: 179) (UniProt Q92502)”: 0.638. Then “CTNNBL1 (peptide sequence: HIIKEYAENIGDGR, peptide start residue: 531) (UniProt Q8WYA6)”, with -0.176; and “PIBF1 (peptide sequence: DALEKHDQLLDR, peptide start residue: 430) (UniProt Q8WXW3)”, with 0.92.

Take “IPCEF1 (peptide sequence: KTQGFLTMSRR, peptide start residue: 484) (UniProt Q8WWN9)”: the log2 fold change was -0.236. The same measure for “MADD (peptide sequence: IFTGSLLVEEK, peptide start residue: 226) (UniProt Q8WXG6)”: -0.256; for “UniProt Q8WXK3 (peptide sequence: TPVHEAAQR, peptide start residue: 21)”: 0.345.
